Measurements published in PubChem BioAssay AID652275 (Broad Institute, 2013).
The shares of active, inactive and inconclusive entries below differ from those in the screen. The source made the active and inactive calls. The rule behind the calls is not given here.

Experiment: T. cruzi growth inhibition in host cells, dose response, cell-based, plate reader, dry powder, set 2 (AID 652275)
Conditions: T. cruzi proliferation in host cells; at 16 µM (top of the series) unless noted

SMILES | activity change, negative = inhibition
CN(C)CC#Cc1cccc(-c2nc(C(=O)Nc3ccc(-c4ccccc4)cc3)cc3c2[C@H](CCO)N(S(=O)C(C)(C)C)C3)c1 (stereo partly specified) | inconclusive: 8.93%
CC(C)N1C[C@@H](C)[C@H](CN(C)Cc2ccc(Oc3ccccc3)cc2)Oc2c(C(=O)O)cccc2C1=O | inactive: -33.8%
CC(C)N1CC2(CN(C(=O)OC(C)(C)C)C2)Oc2c(NC(=O)c3ccncc3)cccc2C1=O | inconclusive: -53.4%
CC(C)N1CC2(CN(Cc3ccccc3)C2)Oc2c(NC(=O)c3ccncc3)cccc2C1=O | inconclusive: -112%
CC(C)N1C[C@@H](C)[C@H](CN(C)Cc2ccc(OCCCC(F)(F)C(F)(F)C(F)(F)C(F)(F)C(F)(F)C(F)(F)C(F)(F)C(F)(F)F)cc2)Oc2c(NC(=O)c3ccncc3)cccc2C1=O | inactive: 33.7%
CC(C)N1CC2(CN(C(=O)c3ccc(Cl)cc3)C2)Oc2c(NC(=O)c3ccncc3)cccc2C1=O | inconclusive: -34.8%
Cc1ccccc1-c1ccc([C@H]2[C@H](CO)N3CCCCN(CC4CC4)C[C@@H]23)cc1 | inconclusive: 54.3%
CC(C)N1C[C@H](C)[C@@H](CN(C)C(=O)OC(C)(C)C)Oc2c(NC(=O)c3ccncc3)cccc2C1=O | inconclusive: -2.96%
C[C@@H](CO)N1CC[C@H](CNC(=O)OC(C)(C)C)Oc2c(NC(=O)c3ccncc3)cccc2C1=O | inconclusive: -54.3%
CC(C)N1C[C@@H](CN)Oc2c(NC(=O)c3ccncc3)cccc2C1=O | inactive: -29%
C[C@@H]1CN([C@@H](C)CO)C(=O)c2cc(Br)cnc2O[C@H]1CN(C)Cc1ccc2c(c1)OCO2 | inconclusive: -57.5%
CN(C)CC#Cc1cccc(-c2nc(C(=O)O)cc3c2[C@H](CCO)N(S(=O)C(C)(C)C)C3)c1 (stereo partly specified) | inactive: -23.9%
C[C@@H]1CCCCO[C@H](CN(C)C(=O)Nc2cccc3ccccc23)[C@@H](C)CN([C@H](C)CO)C(=O)c2cc(N(C)C)ccc2O1 | inconclusive: -57.3%
CC(C)N1C[C@H](C)[C@@H](CN(C)Cc2ccc(Cl)cc2)Oc2c(C(=O)Nc3ccncc3)cccc2C1=O | inconclusive: -97%
COc1ccc(S(=O)(=O)N(C)C[C@H]2OCCCC[C@@H](C)Oc3ccc(N(C)C)cc3C(=O)N([C@H](C)CO)C[C@@H]2C)cc1 | inconclusive: -21.3%
CC(C)N1CC2(CN(Cc3ccc(Cl)c(Cl)c3)C2)Oc2c(NC(=O)c3ccncc3)cccc2C1=O | inconclusive: -104%
CC(C)N1C[C@@H](C)[C@H](CN(C)C(=O)OC(C)(C)C)Oc2c(C(N)=O)cccc2C1=O | inconclusive: -53.2%
Cc1ccccc1-c1ccc([C@H]2[C@H](CO)N3CCCCN(C(=O)c4cccnc4)C[C@@H]23)cc1 | inconclusive: -88.4%
CN(C)C(=O)c1cccc(-c2ccc([C@@H]3[C@@H](CO)N4CCCCN(C(=O)C5CCC5)C[C@@H]34)cc2)c1 | inconclusive: 36.4%
CN(C)C(=O)c1cccc(-c2ccc([C@@H]3[C@H]4CN(C(=O)C5CCC5)CCCCN4[C@H]3CO)cc2)c1 | inconclusive: -59.6%
CN(C)C(=O)c1cccc(-c2ccc([C@H]3[C@H]4CN(C(=O)C5CCC5)CCCCN4[C@H]3CO)cc2)c1 | inconclusive: -33%
C[C@H]1CN([C@@H](C)CO)C(=O)c2cccc(NC(=O)c3ccncc3)c2O[C@@H]1CN(C)Cc1cccc(C(F)(F)F)c1 | inconclusive: -115%
C[C@H]1CN([C@@H](C)CO)C(=O)c2cccc(NC(=O)c3ccncc3)c2O[C@@H]1CN(C)Cc1ccc(Cl)c(F)c1 | inconclusive: -36.6%
CC(C)N1CC[C@@H](CNC(=O)OC(C)(C)C)Oc2c(NC(=O)c3ccncc3)cccc2C1=O | inconclusive: -16.2%
CC(C)N1C[C@H](CN(C)Cc2ccc(Cl)cc2)Oc2c(NC(=O)c3ccnnc3)cccc2C1=O | inconclusive: -74.2%
CC(C)N1C[C@@H](C)[C@H](CN(C)C(=O)OC(C)(C)C)Oc2c(C#N)cccc2C1=O | inactive: -37%

Some of these compounds in order of formula weight, ascending:
SMILES | activity change, negative = inhibition
C[C@@H](CO)N1CC[C@H](CNC(=O)OC(C)(C)C)Oc2c(NC(=O)c3ccncc3)cccc2C1=O | inconclusive: -54.3%
C[C@@H]1CN([C@@H](C)CO)C(=O)c2cc(Br)cnc2O[C@H]1CN(C)Cc1ccc2c(c1)OCO2 | inconclusive: -57.5%
CC(C)N1C[C@H](C)[C@@H](CN(C)Cc2ccc(Cl)cc2)Oc2c(C(=O)Nc3ccncc3)cccc2C1=O | inconclusive: -97%
